Test results as given in the supplement of paper PMC4604168 (melanoma cell lines).
This is one part of the list. Many values rest on one well or one pass, so single values are uncertain.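 The apoptosis fraction was the count of cleaved-PARP antibody-stained nuclei relative to all DNA-stained nuclei, imaged in 1,536-well plates. Screening doses were set so most cells survived, and baseline and induced cleaved-PARP levels vary greatly across cell lines.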

System: COLO829
Experiment: cleaved PARP positive nuclei fraction relative to DMSO control; melanoma cells; higher = more apoptosis
Details: library dose: low library concentration; 72 h

SMILES	cleaved PARP positive nuclei fraction
O=C(/C=C/c1cccnc1)NCCCCC1CCN(C(=O)c2ccccc2)CC1 + C[As](C)SC[C@H](NC(=O)CC[C@H](N)C(=O)O)C(=O)NCC(=O)O [Darinaparsin] (first compound 0.01 µM, partner dose 0.4 µM)	226%
C#Cc1cccc(Nc2ncnc3cc(OCCOC)c(OCCOC)cc23)c1 [erlotinib] + Cc1cc(SCc2sc(-c3ccc(C(F)(F)F)c(F)c3)nc2C)ccc1OCC(=O)O [GW0742] (first compound 0.8 µM, partner dose 2 µM)	49.9%
C[As](C)SC[C@H](NC(=O)CC[C@H](N)C(=O)O)C(=O)NCC(=O)O [Darinaparsin] + COc1ccc(-c2ccc3c(N4CCOCC4)nc(N4C[C@@H](C)O[C@@H](C)C4)nc3n2)cc1CO [KU0063794] (first compound 0.4 µM, partner dose 0.02 µM)	73.2%
Cn1cc(C2=C(c3cn(C4CCN(Cc5ccccn5)CC4)c4ccccc34)C(=O)NC2=O)c2ccccc21 [Enzastaurin] + C[C@@H](Oc1cc(-c2cnn(C3CCNCC3)c2)cnc1N)c1c(Cl)ccc(F)c1Cl [Crizotinib] (first compound 0.8 µM, partner dose 0.2 µM)	89.4%
COc1ccc(C2=N[C@@H](c3ccc(Cl)cc3)[C@@H](c3ccc(Cl)cc3)N2C(=O)N2CCNC(=O)C2)c(OC(C)C)c1 [Nutlin-3] + O=C(Oc1ccc([N+](=O)[O-])cc1)N1CCC(C(O)(c2ccc3c(c2)OCO3)c2ccc3c(c2)OCO3)CC1 [JZL184] (first compound 0.1 µM, partner dose 1 µM)	171%

System: G361
Experiment: as above
Details: library dose: low library concentration; 72 h

SMILES	cleaved PARP positive nuclei fraction
C[C@@H]1CCN(C(=O)CC#N)C[C@@H]1N(C)c1ncnc2[nH]ccc12 + O=C(Oc1ccc([N+](=O)[O-])cc1)N1CCC(C(O)(c2ccc3c(c2)OCO3)c2ccc3c(c2)OCO3)CC1 [JZL184] (first compound 1 µM, partner dose 1 µM)	226%
C[As](C)SC[C@H](NC(=O)CC[C@H](N)C(=O)O)C(=O)NCC(=O)O [Darinaparsin] + C/C(O)=C(\C#N)C(=O)Nc1cc(Br)ccc1Br [LFM-A13] (first compound 0.4 µM, partner dose 2 µM)	111%
Cn1c(=O)n(-c2ccc(C(C)(C)C#N)cc2)c2c3cc(-c4cnc5ccccc5c4)ccc3ncc21 + N.N.[Cl][Pt][Cl] [cisplatin] (first compound 0.004 µM, partner dose 1.6 µM)	94.9%
CC(=O)O[C@@]12CO[C@@H]1C[C@H](O)[C@@]1(C)C(=O)[C@H](O)C3=C(C)[C@@H](OC(=O)[C@H](O)[C@@H](NC(=O)OC(C)(C)C)c4ccccc4)C[C@@](O)([C@@H](OC(=O)c4ccccc4)[C@H]21)C3(C)C [Docetaxel] + C[As](C)SC[C@H](NC(=O)CC[C@H](N)C(=O)O)C(=O)NCC(=O)O [Darinaparsin] (first compound 0.0001 µM, partner dose 0.4 µM)	669%
C[C@]12O[C@H](C[C@]1(O)CO)n1c3ccccc3c3c4c(c5c6ccccc6n2c5c31)CNC4=O [Lestaurtinib] + Cn1c(Nc2ccc(C(F)(F)F)cc2)nc2cc(Oc3ccnc(-c4ncc(C(F)(F)F)[nH]4)c3)ccc21 [CHIR265] (first compound 0.004 µM, partner dose 0.08 µM)	80.3%
Cn1cc(C2=C(c3cn(C4CCN(Cc5ccccn5)CC4)c4ccccc34)C(=O)NC2=O)c2ccccc21 [Enzastaurin] + Cc1cc(Nc2cc(N3CCN(C)CC3)nc(/C=C/c3ccccc3)n2)n[nH]1 [ENMD2076] (first compound 0.8 µM, partner dose 0.04 µM)	65.7%
Cc1cc(Nc2cc(N3CCN(C)CC3)nc(Sc3ccc(NC(=O)C4CC4)cc3)n2)n[nH]1 [Tozasertib] + N.N.[Cl][Pt][Cl] [cisplatin] (first compound 0.006 µM, partner dose 1.6 µM)	71.2%
C[C@]12O[C@H](C[C@]1(O)CO)n1c3ccccc3c3c4c(c5c6ccccc6n2c5c31)CNC4=O [Lestaurtinib] + C[C@@H](Oc1cc(-c2cnn(C3CCNCC3)c2)cnc1N)c1c(Cl)ccc(F)c1Cl [Crizotinib] (first compound 0.004 µM, partner dose 0.2 µM)	126%
N.N.[Cl][Pt][Cl] [cisplatin] + Clc1ccc(Nc2nnc(Cc3ccncc3)c3ccccc23)cc1 [vatalanib] (first compound 1.6 µM, partner dose 2 µM)	97.7%
O=c1[nH]nc(Sc2ncc([N+](=O)[O-])s2)n1-c1ccc2c(c1)OCCO2 + C[C@]12O[C@H](C[C@]1(O)CO)n1c3ccccc3c3c4c(c5c6ccccc6n2c5c31)CNC4=O [Lestaurtinib] (first compound 0.2 µM, partner dose 0.004 µM)	72.7%
C[C@]12O[C@H](C[C@]1(O)CO)n1c3ccccc3c3c4c(c5c6ccccc6n2c5c31)CNC4=O [Lestaurtinib] + C[As](C)SC[C@H](NC(=O)CC[C@H](N)C(=O)O)C(=O)NCC(=O)O [Darinaparsin] (first compound 0.004 µM, partner dose 0.4 µM)	60.2%
COc1ccc(COc2ccc(Cc3cnc(N)nc3N)cc2OC)cc1 + O=C(Oc1ccc([N+](=O)[O-])cc1)N1CCC(C(O)(c2ccc3c(c2)OCO3)c2ccc3c(c2)OCO3)CC1 [JZL184] (first compound 1 µM, partner dose 1 µM)	114%
Cn1cc(C2=C(c3cn(C4CCN(Cc5ccccn5)CC4)c4ccccc34)C(=O)NC2=O)c2ccccc21 [Enzastaurin] + NC1(c2ccc(-c3nc4ccn5c(=O)[nH]nc5c4cc3-c3ccccc3)cc2)CCC1 [MK2206] (first compound 0.8 µM, partner dose 0.4 µM)	43.4%
NC(=O)c1ccc(N(C(N)=O)c2c(F)cccc2F)nc1-c1ccc(F)cc1F + O=C(Oc1ccc([N+](=O)[O-])cc1)N1CCC(C(O)(c2ccc3c(c2)OCO3)c2ccc3c(c2)OCO3)CC1 [JZL184] (first compound 0.4 µM, partner dose 1 µM)	112%
C[C@]12O[C@H](C[C@]1(O)CO)n1c3ccccc3c3c4c(c5c6ccccc6n2c5c31)CNC4=O [Lestaurtinib] + COc1ccc(COc2ccc(Cc3cnc(N)nc3N)cc2OC)cc1 [GW2580] (first compound 0.004 µM, partner dose 1 µM)	158%
Cn1cc(C2=C(c3cn(C4CCN(Cc5ccccn5)CC4)c4ccccc34)C(=O)NC2=O)c2ccccc21 [Enzastaurin] + N.N.[Cl][Pt][Cl] [cisplatin] (first compound 0.8 µM, partner dose 1.6 µM)	108%
C[As](C)SC[C@H](NC(=O)CC[C@H](N)C(=O)O)C(=O)NCC(=O)O [Darinaparsin] + COc1cc(N2CCC(N3CCN(C)CC3)CC2)ccc1Nc1ncc(Cl)c(Nc2ccccc2S(=O)(=O)C(C)C)n1 [NVP-TAE684] (first compound 0.4 µM, partner dose 0.08 µM)	24%
C[C@]12O[C@H](C[C@]1(O)CO)n1c3ccccc3c3c4c(c5c6ccccc6n2c5c31)CNC4=O [Lestaurtinib] + Cn1nnc2c(C(N)=O)ncn2c1=O [temozolomide] (first compound 0.004 µM, partner dose 2 µM)	124%
C[As](C)SC[C@H](NC(=O)CC[C@H](N)C(=O)O)C(=O)NCC(=O)O [Darinaparsin] + COc1ccc(Cl)c(Nc2nc3ccccc3nc2NS(=O)(=O)c2cccc(NC(=O)C(C)(C)N)c2)c1 [XL147] (first compound 0.4 µM, partner dose 0.8 µM)	166%
COCC[n+]1c2c(n(Cc3cnccn3)c1C)C(=O)c1ccccc1C2=O + O=C(Oc1ccc([N+](=O)[O-])cc1)N1CCC(C(O)(c2ccc3c(c2)OCO3)c2ccc3c(c2)OCO3)CC1 [JZL184] (first compound 0.0004 µM, partner dose 1 µM)	189%
COc1cc([C@@H]2c3cc4c(cc3[C@@H](O[C@@H]3O[C@@H]5CO[C@@H](C)O[C@H]5[C@H](O)[C@H]3O)[C@H]3COC(=O)[C@H]23)OCO4)cc(OC)c1O [etoposide] + C[As](C)SC[C@H](NC(=O)CC[C@H](N)C(=O)O)C(=O)NCC(=O)O [Darinaparsin] (first compound 0.02 µM, partner dose 0.4 µM)	103%
C[As](C)SC[C@H](NC(=O)CC[C@H](N)C(=O)O)C(=O)NCC(=O)O [Darinaparsin] + Oc1cc(-c2nc(-c3ccccc3)[nH]c2-c2ccncc2)ccc1Cl [L779450] (first compound 0.4 µM, partner dose 0.2 µM)	89.2%
N.N.[Cl][Pt][Cl] [cisplatin] + Oc1cc(-c2nc(-c3ccccc3)[nH]c2-c2ccncc2)ccc1Cl [L779450] (first compound 1.6 µM, partner dose 0.2 µM)	136%
Cc1nc(Nc2ncc(C(=O)Nc3c(C)cccc3Cl)s2)cc(N2CCN(CCO)CC2)n1 [dasatanib] + O=C(Oc1ccc([N+](=O)[O-])cc1)N1CCC(C(O)(c2ccc3c(c2)OCO3)c2ccc3c(c2)OCO3)CC1 [JZL184] (first compound 0.004 µM, partner dose 1 µM)	31.1%

Five entries from above in a different format.
SMILES,cleaved PARP positive nuclei fraction
"CC(=O)O[C@@]12CO[C@@H]1C[C@H](O)[C@@]1(C)C(=O)[C@H](O)C3=C(C)[C@@H](OC(=O)[C@H](O)[C@@H](NC(=O)OC(C)(C)C)c4ccccc4)C[C@@](O)([C@@H](OC(=O)c4ccccc4)[C@H]21)C3(C)C [Docetaxel] + C[As](C)SC[C@H](NC(=O)CC[C@H](N)C(=O)O)C(=O)NCC(=O)O [Darinaparsin] (first compound 0.0001 µM, partner dose 0.4 µM)",669%
"NC(=O)c1ccc(N(C(N)=O)c2c(F)cccc2F)nc1-c1ccc(F)cc1F + O=C(Oc1ccc([N+](=O)[O-])cc1)N1CCC(C(O)(c2ccc3c(c2)OCO3)c2ccc3c(c2)OCO3)CC1 [JZL184] (first compound 0.4 µM, partner dose 1 µM)",112%
"Cn1cc(C2=C(c3cn(C4CCN(Cc5ccccn5)CC4)c4ccccc34)C(=O)NC2=O)c2ccccc21 [Enzastaurin] + N.N.[Cl][Pt][Cl] [cisplatin] (first compound 0.8 µM, partner dose 1.6 µM)",108%
"C[As](C)SC[C@H](NC(=O)CC[C@H](N)C(=O)O)C(=O)NCC(=O)O [Darinaparsin] + COc1cc(N2CCC(N3CCN(C)CC3)CC2)ccc1Nc1ncc(Cl)c(Nc2ccccc2S(=O)(=O)C(C)C)n1 [NVP-TAE684] (first compound 0.4 µM, partner dose 0.08 µM)",24%
"C[As](C)SC[C@H](NC(=O)CC[C@H](N)C(=O)O)C(=O)NCC(=O)O [Darinaparsin] + COc1ccc(Cl)c(Nc2nc3ccccc3nc2NS(=O)(=O)c2cccc(NC(=O)C(C)(C)N)c2)c1 [XL147] (first compound 0.4 µM, partner dose 0.8 µM)",166%
